Data published in patent publication US6677298B2, “Regulators of PPARδ (β) and their use in the treatment of obesity and insulin resistance” (Bristol-Myers Squibb Company, priority 2000, dated 2004).
Entries after “also recorded” stand apart in the source; their conditions may differ. At least one compound was matched to its structure with a doubt left.

Tested on: NIH 3T3-L1 pre-adipocyte
Assay: Adipocyte differentiation assay (triglyceride accumulation)
Format: cell-based, mouse
Conditions: 3T3-L1 cells after hormonal cocktail; 0.01 to 10 μM; 24-72 hours; FIG. 5

CN(CCOc1ccc(CC2SC(=O)NC2=O)cc1)c1ccccn1 (stereo not shown) [BRL-49653]
Triglyceride accumulation in cells (induction of differentiation): dose dependent accumulation of triglycerides; also recorded: induced significant triglyceride accumulation
